In paper PMC8231826:
These are yes or no findings as the source states them, for the method shown. A result given as binding can be weak or reduced; the word gives no strength.

Molecular target: T1, KYGRGDS peptide (on a column)
T1 sequence (peptide): KYGRGDS
Assay: affinity chromatography on a peptide column; integrin from human platelets in Triton X-100 on an immobilised KYGRGDS column; addition and removal of 2 mM MnCl2; both purified

For “Integrin α IIb β 3 (human (endogenous in platelets)) (complex)”, the binding was “binds”.
